# Tested on: APP-PSEN1dE9×THY1-YFP transgenic mouse cortex
# Assay: Immunohistochemistry colocalization (Mander's overlap coefficient) of Aβ species in transgenic mouse brain sections
# Format: in vivo
# Conditions: IHC, N = 3 mice; for Mander's overlap coefficient, R, with THY1-YFP-positive neurons / Mander's overlap coefficient, R, with X-34 (plaque core): cortex of APP-PSEN1dE9×THY1-YFP mice; for Mander's overlap coefficient, R, with X-34 (plaque core): endogenous Aβ species detected with phosphorylation-state specific antibodies, ~100 cortical plaques; for Mander's overlap coefficient, R, with EEA1 (early endosomes) / Mander's overlap coefficient, R, with LAMP2 (lysosomes) / Mander's overlap coefficient, R, with LC3-positive vesicles: within THY1-YFP-positive neurons, APP-PSEN1dE9×THY1-YFP mouse cortex
Substance,"Mander's overlap coefficient, R, with THY1-YFP-positive neurons","Mander's overlap coefficient, R, with X-34 (plaque core)","Mander's overlap coefficient, R, with EEA1 (early endosomes)","Mander's overlap coefficient, R, with LAMP2 (lysosomes)","Mander's overlap coefficient, R, with LC3-positive vesicles"
amyloid-β phosphorylated at serine residue 26 [p-Ser26Aβ],0.43 ± 0.24,0.48 ± 0.18,0.15 ± 0.12,0.46 ± 0.22,0.37 ± 0.19
non-modified amyloid-β [nmAβ],0.2 ± 0.11,0.61 ± 0.22,0.13 ± 0.10,0.30 ± 0.13,0.29 ± 0.13
amyloid-β phosphorylated at serine residue 8 [p-Ser8Aβ],0.35 ± 0.18,0.67 ± 0.17,0.27 ± 0.17,0.29 ± 0.16,0.49 ± 0.20
